According to publication doi:10.1101/2024.02.28.582656:
No constants are given. Whether binding was seen depends on the method and setting. In cells and extracts the contact can be indirect. These calls come from enrichment with a bait or labelling near it, and not all partners need be listed.

By UniProt entry, the sequences of proteins in these tests, tags left out.
UniProt Q7Z7G8: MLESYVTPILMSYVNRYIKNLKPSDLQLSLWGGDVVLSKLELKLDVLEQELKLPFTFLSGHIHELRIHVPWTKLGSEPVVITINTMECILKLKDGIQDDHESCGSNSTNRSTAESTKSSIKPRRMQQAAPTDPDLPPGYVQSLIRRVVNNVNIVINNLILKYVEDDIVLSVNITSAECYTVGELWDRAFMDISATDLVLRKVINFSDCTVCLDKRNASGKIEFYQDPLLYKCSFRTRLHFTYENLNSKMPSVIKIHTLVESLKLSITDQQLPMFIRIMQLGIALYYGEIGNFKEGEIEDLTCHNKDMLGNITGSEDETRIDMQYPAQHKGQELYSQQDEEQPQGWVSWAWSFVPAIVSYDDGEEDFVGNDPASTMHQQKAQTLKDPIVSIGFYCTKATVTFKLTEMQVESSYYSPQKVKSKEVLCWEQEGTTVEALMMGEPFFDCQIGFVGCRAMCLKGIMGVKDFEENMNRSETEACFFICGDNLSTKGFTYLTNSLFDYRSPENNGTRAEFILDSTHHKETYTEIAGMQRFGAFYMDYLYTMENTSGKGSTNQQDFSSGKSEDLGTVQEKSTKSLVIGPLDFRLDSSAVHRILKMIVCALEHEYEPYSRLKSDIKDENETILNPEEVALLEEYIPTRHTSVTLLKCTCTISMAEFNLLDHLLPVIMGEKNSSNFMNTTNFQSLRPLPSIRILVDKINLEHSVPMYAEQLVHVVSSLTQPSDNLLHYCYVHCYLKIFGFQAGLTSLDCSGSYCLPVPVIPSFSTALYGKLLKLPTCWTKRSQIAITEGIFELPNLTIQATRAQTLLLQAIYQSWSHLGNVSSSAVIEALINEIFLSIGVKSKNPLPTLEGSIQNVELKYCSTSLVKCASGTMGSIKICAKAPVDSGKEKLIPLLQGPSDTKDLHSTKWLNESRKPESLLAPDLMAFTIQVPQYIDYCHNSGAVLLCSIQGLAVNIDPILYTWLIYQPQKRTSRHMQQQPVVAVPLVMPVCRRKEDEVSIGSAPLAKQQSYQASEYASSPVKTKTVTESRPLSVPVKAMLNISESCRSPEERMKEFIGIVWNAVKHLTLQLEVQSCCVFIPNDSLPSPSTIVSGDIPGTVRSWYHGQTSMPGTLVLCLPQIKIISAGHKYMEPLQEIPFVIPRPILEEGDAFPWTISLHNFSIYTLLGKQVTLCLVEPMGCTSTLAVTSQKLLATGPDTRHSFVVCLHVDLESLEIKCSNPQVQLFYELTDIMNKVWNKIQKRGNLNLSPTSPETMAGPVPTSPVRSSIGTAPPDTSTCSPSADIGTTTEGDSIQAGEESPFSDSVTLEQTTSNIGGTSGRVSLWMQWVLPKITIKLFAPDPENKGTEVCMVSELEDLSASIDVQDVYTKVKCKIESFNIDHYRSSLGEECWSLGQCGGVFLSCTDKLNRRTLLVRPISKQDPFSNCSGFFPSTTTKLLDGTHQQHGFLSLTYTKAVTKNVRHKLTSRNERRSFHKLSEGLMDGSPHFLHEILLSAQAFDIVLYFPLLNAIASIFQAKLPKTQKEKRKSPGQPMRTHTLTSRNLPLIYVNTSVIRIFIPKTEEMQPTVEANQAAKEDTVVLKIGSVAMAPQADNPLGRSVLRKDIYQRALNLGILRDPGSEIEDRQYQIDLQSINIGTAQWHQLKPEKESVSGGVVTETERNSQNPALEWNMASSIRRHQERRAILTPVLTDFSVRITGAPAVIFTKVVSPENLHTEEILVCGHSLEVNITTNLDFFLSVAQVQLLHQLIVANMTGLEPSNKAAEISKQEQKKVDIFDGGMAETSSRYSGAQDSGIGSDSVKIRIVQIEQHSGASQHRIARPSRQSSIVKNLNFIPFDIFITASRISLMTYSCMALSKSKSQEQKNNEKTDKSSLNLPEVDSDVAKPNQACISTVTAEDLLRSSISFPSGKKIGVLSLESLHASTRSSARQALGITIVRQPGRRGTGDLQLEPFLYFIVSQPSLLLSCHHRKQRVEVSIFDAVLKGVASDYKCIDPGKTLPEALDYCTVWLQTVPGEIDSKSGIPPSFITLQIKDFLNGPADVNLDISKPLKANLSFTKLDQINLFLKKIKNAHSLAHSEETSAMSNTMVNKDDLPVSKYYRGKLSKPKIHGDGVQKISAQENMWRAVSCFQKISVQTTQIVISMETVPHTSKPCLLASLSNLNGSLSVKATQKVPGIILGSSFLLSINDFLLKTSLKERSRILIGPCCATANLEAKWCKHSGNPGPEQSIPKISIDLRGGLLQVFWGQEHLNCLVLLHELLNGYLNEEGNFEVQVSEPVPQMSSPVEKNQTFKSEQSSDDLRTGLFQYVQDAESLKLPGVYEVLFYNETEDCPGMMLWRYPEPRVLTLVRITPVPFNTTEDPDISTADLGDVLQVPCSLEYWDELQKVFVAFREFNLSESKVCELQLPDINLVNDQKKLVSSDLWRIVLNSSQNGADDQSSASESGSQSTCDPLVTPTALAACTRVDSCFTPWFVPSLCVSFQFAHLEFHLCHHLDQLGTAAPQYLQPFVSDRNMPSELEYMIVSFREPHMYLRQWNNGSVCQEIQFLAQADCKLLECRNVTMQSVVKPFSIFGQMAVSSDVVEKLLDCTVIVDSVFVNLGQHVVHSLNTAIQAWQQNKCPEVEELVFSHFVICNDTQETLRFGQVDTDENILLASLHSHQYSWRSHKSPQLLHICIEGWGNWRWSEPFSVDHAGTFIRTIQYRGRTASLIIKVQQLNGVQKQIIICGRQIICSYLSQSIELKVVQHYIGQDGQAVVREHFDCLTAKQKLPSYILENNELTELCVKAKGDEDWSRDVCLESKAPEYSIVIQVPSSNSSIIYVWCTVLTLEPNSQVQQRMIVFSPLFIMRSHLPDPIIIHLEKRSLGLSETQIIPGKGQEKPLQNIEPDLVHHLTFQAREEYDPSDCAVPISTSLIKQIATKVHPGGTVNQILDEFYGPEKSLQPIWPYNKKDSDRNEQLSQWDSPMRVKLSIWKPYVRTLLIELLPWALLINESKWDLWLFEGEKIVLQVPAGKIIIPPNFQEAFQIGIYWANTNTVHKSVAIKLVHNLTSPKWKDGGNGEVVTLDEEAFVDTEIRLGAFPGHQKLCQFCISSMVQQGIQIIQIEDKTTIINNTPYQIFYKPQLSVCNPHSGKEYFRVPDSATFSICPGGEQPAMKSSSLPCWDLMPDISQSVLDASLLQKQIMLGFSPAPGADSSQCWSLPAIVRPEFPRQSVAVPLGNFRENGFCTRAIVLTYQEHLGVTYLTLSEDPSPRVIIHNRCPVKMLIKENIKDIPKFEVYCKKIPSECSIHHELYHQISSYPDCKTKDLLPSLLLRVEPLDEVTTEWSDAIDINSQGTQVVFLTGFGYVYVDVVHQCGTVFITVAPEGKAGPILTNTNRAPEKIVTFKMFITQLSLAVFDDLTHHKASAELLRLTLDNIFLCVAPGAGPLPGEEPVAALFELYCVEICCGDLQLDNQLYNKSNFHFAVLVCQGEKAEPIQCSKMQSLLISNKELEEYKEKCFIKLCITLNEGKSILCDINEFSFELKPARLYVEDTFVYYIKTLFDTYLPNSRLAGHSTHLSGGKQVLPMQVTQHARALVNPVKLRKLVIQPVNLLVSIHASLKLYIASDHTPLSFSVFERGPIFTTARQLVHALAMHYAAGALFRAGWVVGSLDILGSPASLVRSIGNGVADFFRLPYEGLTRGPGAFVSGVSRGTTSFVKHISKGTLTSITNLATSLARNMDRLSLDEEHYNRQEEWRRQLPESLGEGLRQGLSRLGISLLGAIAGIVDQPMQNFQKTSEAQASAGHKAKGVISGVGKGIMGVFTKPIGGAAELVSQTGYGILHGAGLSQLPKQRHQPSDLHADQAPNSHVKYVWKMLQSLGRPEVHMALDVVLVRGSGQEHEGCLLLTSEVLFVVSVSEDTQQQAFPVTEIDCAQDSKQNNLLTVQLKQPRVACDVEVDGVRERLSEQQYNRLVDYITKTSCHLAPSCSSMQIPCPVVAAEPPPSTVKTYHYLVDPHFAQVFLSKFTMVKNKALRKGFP

Molecular target: VPS13B-GFP (human) (UniProt Q7Z7G8)
Assay: affinity purification with mass spectrometry

binding: binds
B1: endogenous Sec23IP (protein, UniProt Q9Y6Y8 1-1000)
chain: MAERKPNGGSGGASTSSSGTNLLFSSSATEFSFNVPFIPVTQASASPASLLLPGEDSTDVGEEDSFLGQTSIHTSAPQTFSYFSQVSSSSDPFGNIGQSPLTTAATSVGQSGFPKPLTALPFTTGSQDVSNAFSPSISKAQPGAPPSSLMGINSYLPSQPSSLPPSYFGNQPQGIPQPGYNPYRHTPGSSRANPYIAPPQLQQCQTPGPPAHPPPSGPPVQMYQMPPGSLPPVPSSVQSPAQQQVPARPGAPSVQVPSPFLLQNQYEPVQPHWFYCKEVEYKQLWMPFSVFDSLNLEEIYNSVQPDPESVVLGTDGGRYDVYLYDRIRKAAYWEEEPAEVRRCTWFYKGDTDSRFIPYTEEFSEKLEAEYKKAVTTNQWHRRLEFPSGETIVMHNPKVIVQFQPSSVPDEWGTTQDGQTRPRVVKRGIDDNLDEIPDGEMPQVDHLVFVVHGIGPVCDLRFRSIIECVDDFRVVSLKLLRTHFKKSLDDGKVSRVEFLPVHWHSSLGGDATGVDRNIKKITLPSIGRFRHFTNETLLDILFYNSPTYCQTIVEKVGMEINHLHALFMSRNPDFKGGVSVAGHSLGSLILFDILSNQKDLNLSKCPGPLAVANGVVKQLHFQEKQMPEEPKLTLDESYDLVVENKEVLTLQETLEALSLSEYFSTFEKEKIDMESLLMCTVDDLKEMGIPLGPRKKIANFVEHKAAKLKKAASEKKAVAATSTKGQEQSAQKTKDMASLPSESNEPKRKLPVGACVSSVCVNYESFEVGAGQVSVAYNSLDFEPEIFFALGSPIAMFLTIRGVDRIDENYSLPTCKGFFNIYHPLDPVAYRLEPMIVPDLDLKAVLIPHHKGRKRLHLELKESLSRMGSDLKQGFISSLKSAWQTLNEFARAHTSSTQLQEELEKVANQIKEEEEKQVVEAEKVVESPDFSKDEDYLGKVGMLNGGRRIDYVLQEKPIESFNEYLFALQSHLCYWESEDTALLLLKEIYRTMNISPEQPQH
